Values from PubChem BioAssay AID504786 (Drosophila RNAi Screening Center, 2011).
Screen: 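Positive regulators of HIF-driven reporter output in Drosophila cells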 (primary screen). Cell system: Drosophila S2 cells with a stable HIF luciferase reporter. Knock-down reagent: long dsRNA against Drosophila genes, about 0.2 µg dsRNA per well of a 384-well plate. Timing: three days of knock-down, then 20 h of DFO before reading. Treatment: desferrioxamine (DFO) at 100 µM, an iron chelator that mimics hypoxia, for 20 h. Measurement: 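HIF reporter luminescence in cells given 100 µM DFO for 20 h, using the mouse ldh-a hypoxia-response element, scored as per-plate z-scores; higher means greater loss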. Direction: z-score: higher = stronger loss of HIF reporter signal.
The deposit covers about 21,000 reagents; shown is a random part of those with a known target gene and a result. 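Primary screen; positive scores mean lost reporter signal, so the sign may be inverted from the usual convention.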 A plus sign joins genes that one reagent is predicted to hit. Not all columns of the deposit are shown.

Elovl7 [DRSC15452] | z-score, replicate 1 = 0
Fancd2 [DRSC15208] | z-score, replicate 1 = 0
CG34178 + CG34177 [DRSC00351] | z-score, replicate 1 = -0.1
Mcm10 [DRSC03162] | z-score, replicate 1 = -0.3
IFT57 [DRSC00720] | z-score, replicate 1 = -0.3
qtc [DRSC02364] | z-score, replicate 1 = -0.2
qtc [DRSC02365] | z-score, replicate 1 = -0.2
tplus3a + tplus3b [DRSC03687] | z-score, replicate 1 = 1.2
CG13810 [DRSC08344] | z-score, replicate 1 = -0.3
Sfp93F [DRSC13505] | z-score, replicate 1 = -0.1
kuk [DRSC15730] | z-score, replicate 1 = -0.3
fy [DRSC03533] | z-score, replicate 1 = -0.2
ATP8 (retired record) [DRSC21277] | z-score, replicate 1 = -0.2
CG32563 [DRSC19934] | z-score, replicate 1 = -0.4
awd [DRSC16906] | z-score, replicate 1 = -0.4
CG12347 [DRSC14502] | z-score, replicate 1 = -0.1
CG15631 [DRSC00466] | z-score, replicate 1 = -0.3
Mur18B [DRSC20063] | z-score, replicate 1 = -0.2
MCU [DRSC10339] | z-score, replicate 1 = -0.2

The list goes on, starting with the last 5 of the part before.
awd [DRSC16906] | z-score, replicate 1 = -0.4
CG12347 [DRSC14502] | z-score, replicate 1 = -0.1
CG15631 [DRSC00466] | z-score, replicate 1 = -0.3
Mur18B [DRSC20063] | z-score, replicate 1 = -0.2
MCU [DRSC10339] | z-score, replicate 1 = -0.2
Ent2 [DRSC02124] | z-score, replicate 1 = -0.2
CG16824 [DRSC02525] | z-score, replicate 1 = -0.3
CG34425 [DRSC12210] | z-score, replicate 1 = -0.3
CG16998 [DRSC10235] | z-score, replicate 1 = -0.2
CG7196 (retired record) [DRSC01000] | z-score, replicate 1 = -0.1
CG7196 (retired record) [DRSC03023] | z-score, replicate 1 = 0.1
CG12375 [DRSC02163] | z-score, replicate 1 = -0.2
Nuf2 [DRSC03123] | z-score, replicate 1 = -0.1
nvy [DRSC04705] | z-score, replicate 1 = -0.2
MED6 [DRSC16500] | z-score, replicate 1 = -0.1
UQCR-Q [DRSC10886] | z-score, replicate 1 = 0.8
CG12994 [DRSC19192] | z-score, replicate 1 = -0.6
CG12994 [DRSC19514] | z-score, replicate 1 = 0.1
FucTA [DRSC10733] | z-score, replicate 1 = -0.2
CG12608 [DRSC19472] | z-score, replicate 1 = -0.2
CG34347 [DRSC14047] | z-score, replicate 1 = -0.2
CG34347 [DRSC14305] | z-score, replicate 1 = 0
CG34347 [DRSC15104] | z-score, replicate 1 = -0.1
CG34347 [DRSC15105] | z-score, replicate 1 = 3.9
CG13877 + pyx [DRSC08347] | z-score, replicate 1 = -0.4
CG9890 [DRSC04590] | z-score, replicate 1 = -0.3
